Results deposited as PubChem BioAssay AID1224830 (NIAID, 2016)
In all, the deposit lists about 18,000 reagents; below is a part drawn at random. Of all reagents, about 2,900 (16%) were called active. 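Calls are made per well; low scores hint the gene aids the LPS response, high scores that it dampens it.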 A number with no mark means an inactive call. Repeated entries: four replicate wells of each siRNA pool.

Screen: 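Regulators of TLR4 signalling towards TNF-alpha in macrophage-like cells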 (primary screen)
Cell system: human THP-1 monocytic leukaemia cells, TNF dual-luciferase reporter clone, PMA-differentiated to macrophage-like cells
Reagent: siRNA pool against human genes, 50 nM
Timing: LPS for 4 h, given about 3 days after siRNA transfection
Conditions: bacterial LPS (TLR4 ligand), 10 ng/ml
Measurement: 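Ratio of firefly to renilla light, scaled to the plate median and expressed as a robust z-score per replicate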
Direction: TNF reporter robust z-score: higher = stronger TNF reporter response to LPS
Hit rule: 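a well is active when its z-score exceeds 2.8 or falls below -1.5; control wells carry no call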

| Gene | TNF reporter robust z-score |
| --- | --- |
| SLC46A1 | -0.95 |
| SLC46A1 | -0.02 |
| SLC46A1 | -1.14 |
| SLC46A1 | 1.28 |
| CGB3 (chorionic gonadotropin subunit beta 3) | 0.45 |
| CGB3 (chorionic gonadotropin subunit beta 3) | 0.89 |
| CGB3 (chorionic gonadotropin subunit beta 3) | 0.4 |
| CGB3 (chorionic gonadotropin subunit beta 3) | 0.52 |
| GSX2 (GS homeobox 2) | 1.01 |
| GSX2 (GS homeobox 2) | 0.5 |
| GSX2 (GS homeobox 2) | -0.06 |
| GSX2 (GS homeobox 2) | 0.64 |
| CEP95 (centrosomal protein 95) | 2.12 |
| CEP95 (centrosomal protein 95) | 0.89 |
| CEP95 (centrosomal protein 95) | 1.7 |
| CEP95 (centrosomal protein 95) | 1.38 |
| RPS4X (ribosomal protein S4 X-linked) | 1.87 |
| RPS4X (ribosomal protein S4 X-linked) | 0.99 |
| RPS4X (ribosomal protein S4 X-linked) | 1.3 |
| RPS4X (ribosomal protein S4 X-linked) | 2.16 |
| ASAP2 (ArfGAP with SH3 domain, ankyrin repeat and PH domain 2) | -0.24 |
| ASAP2 (ArfGAP with SH3 domain, ankyrin repeat and PH domain 2) | -0.85 |
| ASAP2 (ArfGAP with SH3 domain, ankyrin repeat and PH domain 2) | -1.29 |
| ASAP2 (ArfGAP with SH3 domain, ankyrin repeat and PH domain 2) | -0.62 |
| ZP2 (zona pellucida glycoprotein 2) | 0.21 |
| ZP2 (zona pellucida glycoprotein 2) | 0.29 |
| ZP2 (zona pellucida glycoprotein 2) | 1.75 |
| ZP2 (zona pellucida glycoprotein 2) | 3.31 (active) |
| ASIC1 (acid sensing ion channel subunit 1) | 0.27 |
| ASIC1 (acid sensing ion channel subunit 1) | -0.25 |
| ASIC1 (acid sensing ion channel subunit 1) | -0.1 |
| ASIC1 (acid sensing ion channel subunit 1) | -0.31 |
| ARHGAP33 (Rho GTPase activating protein 33) | -0.89 |
| ARHGAP33 (Rho GTPase activating protein 33) | -0.02 |
| ARHGAP33 (Rho GTPase activating protein 33) | -0.53 |
| ARHGAP33 (Rho GTPase activating protein 33) | -0.4 |
| VSIG2 (V-set and immunoglobulin domain containing 2) | 0.4 |
| VSIG2 (V-set and immunoglobulin domain containing 2) | -0.63 |
| VSIG2 (V-set and immunoglobulin domain containing 2) | 0.39 |
| VSIG2 (V-set and immunoglobulin domain containing 2) | 0.66 |
| FBXO2 (F-box protein 2) | 1.82 |
| FBXO2 (F-box protein 2) | 2.86 (active) |
| FBXO2 (F-box protein 2) | 2.97 (active) |
| FBXO2 (F-box protein 2) | 5.7 (active) |
| SLC39A13 | -0.12 |
| SLC39A13 | -0.63 |
| SLC39A13 | -0.65 |
| SLC39A13 | -1.39 |
| METTL25B (methyltransferase like 25B) | -0.28 |
| METTL25B (methyltransferase like 25B) | -0.47 |
| METTL25B (methyltransferase like 25B) | -0.48 |
| METTL25B (methyltransferase like 25B) | -0.06 |
| OR3A1 (olfactory receptor family 3 subfamily A member 1) | -0.34 |
| OR3A1 (olfactory receptor family 3 subfamily A member 1) | 0.05 |
| OR3A1 (olfactory receptor family 3 subfamily A member 1) | 0.83 |
| AADAC (arylacetamide deacetylase) | 0.26 |
| AADAC (arylacetamide deacetylase) | 0.18 |
| AADAC (arylacetamide deacetylase) | 0.17 |
| AADAC (arylacetamide deacetylase) | 0.57 |
| SEPTIN5 (septin 5) | -0.38 |
| SEPTIN5 (septin 5) | -0.33 |
| SEPTIN5 (septin 5) | -1.19 |
| SEPTIN5 (septin 5) | -0.64 |
| ZWILCH (zwilch kinetochore protein) | -0.35 |
| ZWILCH (zwilch kinetochore protein) | 0.22 |
| ZWILCH (zwilch kinetochore protein) | -0.17 |
| NUDT21 (nudix hydrolase 21) | 0.59 |
| NUDT21 (nudix hydrolase 21) | 2.3 |
| NUDT21 (nudix hydrolase 21) | 1.14 |
| NUDT21 (nudix hydrolase 21) | 0.25 |
| CCDC13 (coiled-coil domain containing 13) | -0.37 |
| CCDC13 (coiled-coil domain containing 13) | -0.39 |
| CCDC13 (coiled-coil domain containing 13) | 0.46 |
| CCDC13 (coiled-coil domain containing 13) | -0.27 |
| PTMS (parathymosin) | -0.38 |
| PTMS (parathymosin) | 0.56 |
| PTMS (parathymosin) | -1.05 |
| PTMS (parathymosin) | -0.19 |
| BPNT1 (3'(2'), 5'-bisphosphate nucleotidase 1) | 1.23 |
| BPNT1 (3'(2'), 5'-bisphosphate nucleotidase 1) | -0.17 |
| BPNT1 (3'(2'), 5'-bisphosphate nucleotidase 1) | 0.85 |
| BPNT1 (3'(2'), 5'-bisphosphate nucleotidase 1) | -0.15 |
| SOCS5 (suppressor of cytokine signaling 5) | 0.17 |
| SOCS5 (suppressor of cytokine signaling 5) | -0.22 |
| SOCS5 (suppressor of cytokine signaling 5) | -0.31 |
| SOCS5 (suppressor of cytokine signaling 5) | -0.08 |
| EEF1AKMT1 (EEF1A lysine methyltransferase 1) | -0.4 |
| EEF1AKMT1 (EEF1A lysine methyltransferase 1) | -0.35 |
| EEF1AKMT1 (EEF1A lysine methyltransferase 1) | -1.54 (active) |
| EEF1AKMT1 (EEF1A lysine methyltransferase 1) | -1.13 |
| UBLCP1 (ubiquitin like domain containing CTD phosphatase 1) | -0.68 |
| UBLCP1 (ubiquitin like domain containing CTD phosphatase 1) | 1.2 |
| UBLCP1 (ubiquitin like domain containing CTD phosphatase 1) | 0.25 |
| UBLCP1 (ubiquitin like domain containing CTD phosphatase 1) | 0.81 |
| HOXD4 (homeobox D4) | 0.06 |
| HOXD4 (homeobox D4) | -0.51 |
| HOXD4 (homeobox D4) | -0.48 |
| HOXD4 (homeobox D4) | 1.23 |
| EIF1AX (eukaryotic translation initiation factor 1A X-linked) | 0.51 |
| EIF1AX (eukaryotic translation initiation factor 1A X-linked) | 1.67 |
| EIF1AX (eukaryotic translation initiation factor 1A X-linked) | 1.43 |
| EIF1AX (eukaryotic translation initiation factor 1A X-linked) | 2.46 |
| IQCC (IQ motif containing C) | 0.2 |
| IQCC (IQ motif containing C) | 1.23 |
| IQCC (IQ motif containing C) | -0.08 |
| IQCC (IQ motif containing C) | 1 |
| MAMDC4 (MAM domain containing 4) | -0.84 |
| MAMDC4 (MAM domain containing 4) | -1.03 |
| MAMDC4 (MAM domain containing 4) | -0.49 |
| MAMDC4 (MAM domain containing 4) | -0.56 |

Records above with an active call (5):
| Gene | TNF reporter robust z-score |
| --- | --- |
| ZP2 (zona pellucida glycoprotein 2) | 3.31 (active) |
| FBXO2 (F-box protein 2) | 2.86 (active) |
| FBXO2 (F-box protein 2) | 2.97 (active) |
| FBXO2 (F-box protein 2) | 5.7 (active) |
| EEF1AKMT1 (EEF1A lysine methyltransferase 1) | -1.54 (active) |
